Data published in PubChem BioAssay AID2685 (National Center for Advancing Translational Sciences (NCATS), 2010).
This is one part of the list. Shown are side measurements of this screen, not its main read-out; they come without a call. Compounds called inactive in the main read-out are mostly missing here. Words in brackets tell the shape of the fitted curve; partial curves, single points and poor fits give uncertain potencies.

Test: qHTS Assay for Lipid Storage Modulators in Drosophila S3 Cells;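 on cell number change: cells counted by Cell Tracker Red CMTPX staining in the red channel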
Details: BODIPY lipid droplet fluorescence, 18-24 h; for cell number change: measured here: cell count max response, cells fed with added oleic acid
Method in brief: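 Drosophila S3 cells loaded with oleic acid (400 uM, as added) and compounds at several concentrations; lipid droplets imaged by 488-nm laser-scanning cytometry, 500–530 nm intensity and object ratio to cell channel. Percent activity normalized to 20 uM Triacsin C.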

[1] = measured here: cell number channel AC50, cells fed with added oleic acid
[2] = measured here: lipid fluorescence (Fed channel) AC50, cells fed with added oleic acid

Row | Compound | cell number change [%] | AC50 [1] | AC50 [2]
1 | CC(C)Cn1c(N)c(C(=O)NCC2CCCO2)c2nc3ccccc3nc21 (stereo unspecified) | -37.3 | 13 µM [falling, partial curve] | 16.4 µM [falling, partial curve]
2 | Cc1ccc(N(CCC(=O)O)S(=O)(=O)c2ccccc2)cc1 | -5.8 | – | 2.06 µM [rising, partial curve, poor fit]
3 | CCCCCc1c(C)nc(N2CCN(Cc3ccc4c(c3)OCO4)CC2)[nH]c1=O | -25 | – | –
4 | Oc1ccc(C[C@@H]2CNCCN2CCC23CC4CC(CC(C4)C2)C3)cc1 | -25.3 | 0.184 µM [falling, full curve, poor fit] | 0.184 µM [falling, full curve, poor fit]
5 | Cc1c(C(=O)c2cccc([N+](=O)[O-])c2)c2ccccn2c1CCC#N | 9.49 | – | 0.651 µM [rising, single point]
6 | COc1ccc(OC)c(CN(CCN2CCOCC2)C(=O)Nc2ccccc2)c1 | – | – | 0.517 µM [rising, full curve, poor fit]
7 | CCOc1ccc(CCNC(=O)Nc2ccccc2C)cc1OCC | -38 | 18.4 µM [falling, single point] | –
8 | Cc1c(C(=O)Nc2ccccc2C(=O)N2CCCC2)cccc1[N+](=O)[O-] | – | 6.51 µM [falling, single point] | –
9 | CCCCOC(=O)C1=C(C)NC2=C(C(=O)CCC2)C1c1cc(OC)ccc1OC (stereo unspecified) | 5.36 | – | 0.058 µM [rising, full curve]
10 | CCN(CC)S(=O)(=O)c1ccc(O)c(C(=O)OCC(=O)Nc2ccc(OC(F)(F)F)cc2)c1 | – | 5.8 µM [rising, single point] | –
11 | COc1cc2c(cc1NC(=O)/C=C/c1ccc([N+](=O)[O-])cc1)oc1ccccc12 | -1.58 | – | –
12 | COc1ccc(N(C)S(=O)(=O)c2cccc(C(=O)Nc3nc(C)cs3)c2)cc1 | -20.2 | – | 3.66 µM [falling, partial curve]
13 | CC(C)C1=Nc2cccc3cccc(c23)N1 | -20.1 | – | 3.26 µM [falling, full curve, poor fit]
14 | COC(=O)c1ccc(COC(=O)CNC(=O)c2cccc(OC)c2)o1 | 8.65 | – | 4.61 µM [rising, single point]
15 | C=CCn1c(SCC(=O)NC(=O)NCC(C)C)nnc1C1CCCCC1 | 3.59 | – | –
16 | CCOC(=O)c1cnn(-c2ccccc2)c1NC(=O)CCl | 5.89 | – | –
17 | O=C(/C=C/Nc1ccc([N+](=O)[O-])cc1Br)c1cccc2ccccc12 | 1.87 | – | –
18 | Cc1noc(C)c1COc1ccc(C(=O)OCC(=O)Nc2c(C)n(C)n(-c3ccccc3)c2=O)cc1 | 146 | 23.1 µM [rising, partial curve] | 23.1 µM [rising, partial curve]
19 | Cc1cc(OC(F)F)ccc1NC(=S)NC1CCCC1 | 24.4 | 2.31 µM [rising, partial curve, poor fit] | 0.103 µM [rising, full curve, poor fit]

Row | Compound | cell number change [%] | AC50 [1] | AC50 [2]
20 | CCCCCn1c(=O)c(F)cn(Cc2ccc(OC)c([N+](=O)[O-])c2)c1=O | -23.2 | – | –
21 | CC(=O)c1ccc(N2CCN(C(=O)CN3C(=O)NC4(CCCCC4)C3=O)CC2)c(F)c1 | -12.6 | – | 25.9 µM [falling, partial curve, poor fit]
22 | COc1ccccc1N1CCN(C(=O)CSc2nc(C)c(C)c(=O)[nH]2)CC1 | -8.53 | – | 2.06 µM [falling, partial curve]
23 | Cc1nn(Cc2ccccc2)c(C)c1NC(=O)c1ccc([N+](=O)[O-])cc1[N+](=O)[O-] | 0.445 | 0.82 µM [falling, single point] | –
24 | Cc1cc(C)nc(N2CCCC(C(=O)Nc3ccc4c(c3)OCCO4)C2)n1 (stereo unspecified) | 24.6 | – | 4.11 µM [rising, single point]
25 | COc1ccc(/C=C\C(=O)NCc2ccc3c(c2)cc(C)n3C)cc1OC | -7.23 | – | 0.0058 µM [falling, full curve, poor fit]
26 | O=C(Nc1cccc(F)c1)c1cc(S(=O)(=O)NCCC2=CCCCC2)ccc1F | -30.7 | 9.2 µM [falling, partial curve, poor fit] | –
27 | CCc1cc(=O)oc2cc3occ(C)c3cc12 | – | – | 1.84 µM [rising, full curve]
28 | COc1ccc(-n2ccnc(SCC(=O)NCc3ccc(C)cc3)c2=O)cc1Cl | 50 | 29.1 µM [rising, single point] | 5.8 µM [falling, full curve]
29 | COc1ccc(NC(=O)c2cccnc2N2CCCCC2)cc1 | -30.3 | 20.6 µM [falling, single point] | 29.1 µM [falling, single point]
30 | CCCn1c(=O)c(C(=O)NCCc2ccc(Cl)cc2)c(O)c2ccccc21 | -18.8 | – | –
31 | COc1ccc(C(O)P(=O)(OC(C)C)OC(C)C)cc1OC (stereo unspecified) | 0.281 | – | 0.164 µM [rising, full curve, poor fit]
32 | Cc1nc2sccn2c(=O)c1S(=O)(=O)Nc1ccc(N2CCN(C)CC2)cc1 | -6.34 | – | 0.517 µM [falling, single point]
33 | CC(=O)c1ccc(NC(=O)Nc2ccc(S(=O)(=O)N3CCCC3)cc2)cc1 | – | – | 11.6 µM [falling, partial curve]
34 | COC(=O)CS(=O)(=O)c1cccc2cccnc12 | -15.6 | – | 4.11 µM [falling, single point]
35 | Cc1cccc(C(=O)O/N=C(\N)Cc2ccc([N+](=O)[O-])cc2)c1 | 4.13 | – | 2.31 µM [rising, partial curve]
36 | COc1ccc(-c2cc(-c3nnc(COC(=O)c4ccc(O)cc4)o3)c3ccccc3n2)cc1OC | 29.2 | – | 0.651 µM [rising, full curve, poor fit]
37 | COc1ccc(NC(=O)CN(C)C(=O)C(C)Oc2ccc(Br)cc2)cc1 (stereo unspecified) | 30.8 | 14.6 µM [rising, single point] | –
38 | CCCC(=O)Nc1nc(-c2ccc(Cl)s2)cs1 | -33 | 2.91 µM [falling, partial curve, poor fit] | 5.17 µM [falling, single point]

2 compounds picked at random from the list so far, as already listed:
Row | Compound | cell number change [%] | AC50 [1] | AC50 [2]
38 | CCCC(=O)Nc1nc(-c2ccc(Cl)s2)cs1 | -33 | 2.91 µM [falling, partial curve, poor fit] | 5.17 µM [falling, single point]
10 | CCN(CC)S(=O)(=O)c1ccc(O)c(C(=O)OCC(=O)Nc2ccc(OC(F)(F)F)cc2)c1 | – | 5.8 µM [rising, single point] | –
